No constants are given. Whether binding was seen depends on the method and setting. In cells and extracts the contact can be indirect. A yes stands for co-enrichment or nearness to the bait. Other partners may have been found.

The chains behind the UniProt entries cited, without tags or fusion partners.
UniProt Q9Y4B6: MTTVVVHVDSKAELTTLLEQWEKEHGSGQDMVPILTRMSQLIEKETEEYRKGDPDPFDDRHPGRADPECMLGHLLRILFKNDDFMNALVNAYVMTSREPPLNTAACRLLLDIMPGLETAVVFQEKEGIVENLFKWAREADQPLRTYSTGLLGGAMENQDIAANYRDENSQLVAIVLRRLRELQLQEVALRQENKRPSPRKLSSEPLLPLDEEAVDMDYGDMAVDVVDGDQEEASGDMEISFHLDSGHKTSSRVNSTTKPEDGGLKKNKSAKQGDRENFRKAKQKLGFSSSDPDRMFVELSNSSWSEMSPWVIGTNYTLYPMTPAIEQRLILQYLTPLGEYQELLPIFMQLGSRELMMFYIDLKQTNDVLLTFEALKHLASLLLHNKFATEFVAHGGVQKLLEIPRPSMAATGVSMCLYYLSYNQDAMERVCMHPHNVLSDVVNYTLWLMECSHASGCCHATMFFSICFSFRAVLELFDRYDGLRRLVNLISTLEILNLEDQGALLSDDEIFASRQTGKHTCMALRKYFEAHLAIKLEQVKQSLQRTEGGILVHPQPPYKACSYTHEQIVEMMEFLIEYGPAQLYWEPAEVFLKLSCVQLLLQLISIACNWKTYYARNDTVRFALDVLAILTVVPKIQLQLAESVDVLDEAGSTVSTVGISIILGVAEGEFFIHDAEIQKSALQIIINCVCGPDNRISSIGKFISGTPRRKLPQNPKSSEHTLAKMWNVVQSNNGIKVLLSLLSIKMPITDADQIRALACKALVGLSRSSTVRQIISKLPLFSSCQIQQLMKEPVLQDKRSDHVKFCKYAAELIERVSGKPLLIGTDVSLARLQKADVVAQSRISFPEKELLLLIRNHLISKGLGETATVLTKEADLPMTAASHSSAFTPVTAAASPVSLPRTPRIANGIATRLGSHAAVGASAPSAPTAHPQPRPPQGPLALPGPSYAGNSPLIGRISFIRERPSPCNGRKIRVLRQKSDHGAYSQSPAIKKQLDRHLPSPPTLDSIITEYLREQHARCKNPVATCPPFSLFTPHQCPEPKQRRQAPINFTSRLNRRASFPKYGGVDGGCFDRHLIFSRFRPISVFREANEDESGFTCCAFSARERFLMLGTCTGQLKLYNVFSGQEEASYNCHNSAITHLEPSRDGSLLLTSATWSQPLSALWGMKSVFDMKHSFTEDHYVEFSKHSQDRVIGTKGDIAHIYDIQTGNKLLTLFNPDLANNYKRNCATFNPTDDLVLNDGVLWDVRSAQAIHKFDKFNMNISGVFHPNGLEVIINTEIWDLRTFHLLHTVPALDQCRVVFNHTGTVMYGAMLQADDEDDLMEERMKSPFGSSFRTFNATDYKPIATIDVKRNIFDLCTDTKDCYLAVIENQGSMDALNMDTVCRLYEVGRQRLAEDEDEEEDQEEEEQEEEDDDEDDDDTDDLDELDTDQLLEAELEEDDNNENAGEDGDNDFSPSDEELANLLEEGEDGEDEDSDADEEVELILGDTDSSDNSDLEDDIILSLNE

In article PMC11166663 one finds binding data, which are given here for three substances.

In this assay the target is Rheb (bait of the Rheb-associated immunoprecipitated complex analysed by mass spectrometry) (UniProt Q15382). Put plainly: affinity purification with mass spectrometry; mass spectrometry of the Rheb-associated immunoprecipitated complex; cells and antibody not stated.
As for “DDB1, endogenous (from UniProt Q16531 1-1140)”, the binding entry is on record as “binds”. As for “DDB1-CUL4-associated factor 1 (DCAF1), endogenous (from UniProt Q9Y4B6 1-1507)”, the binding result is “binds”. Regarding “CUL4a, endogenous (from UniProt Q13619 1-759)”, the binding entry is “binds”.
